Compound in the experiment: CCc1cnccc1C(=O)Nc1cc2c(cc1F)NC(=O)CC2
Put plainly: melting temperature shift (DMSO Tm minus MBE1-treated Tm) in cellular thermal proteome profiling; higher = less thermal stabilization by MBE1 (negative = stabilized by MBE1). The conditions noted are these: A375.

The chains behind the UniProt entries cited, without tags or fusion partners. Where a name states a change or a piece, a line headed by the entry shows the natural chain unless it says otherwise.
UniProt Q13015: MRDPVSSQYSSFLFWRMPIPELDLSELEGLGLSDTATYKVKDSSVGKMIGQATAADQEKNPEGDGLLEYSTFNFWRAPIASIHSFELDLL
UniProt Q00013: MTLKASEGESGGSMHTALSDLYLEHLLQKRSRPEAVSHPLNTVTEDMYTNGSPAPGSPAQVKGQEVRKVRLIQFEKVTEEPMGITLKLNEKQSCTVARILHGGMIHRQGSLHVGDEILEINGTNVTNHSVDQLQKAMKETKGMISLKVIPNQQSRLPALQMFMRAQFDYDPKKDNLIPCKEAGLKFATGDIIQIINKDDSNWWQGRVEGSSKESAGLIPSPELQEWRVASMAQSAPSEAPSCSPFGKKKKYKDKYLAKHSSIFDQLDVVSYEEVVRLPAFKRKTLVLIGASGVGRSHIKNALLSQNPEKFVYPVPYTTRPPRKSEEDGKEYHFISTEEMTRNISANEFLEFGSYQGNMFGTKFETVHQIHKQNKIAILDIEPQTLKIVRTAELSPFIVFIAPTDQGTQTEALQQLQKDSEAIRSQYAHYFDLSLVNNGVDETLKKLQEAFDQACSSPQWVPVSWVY
UniProt Q13042, whole entry: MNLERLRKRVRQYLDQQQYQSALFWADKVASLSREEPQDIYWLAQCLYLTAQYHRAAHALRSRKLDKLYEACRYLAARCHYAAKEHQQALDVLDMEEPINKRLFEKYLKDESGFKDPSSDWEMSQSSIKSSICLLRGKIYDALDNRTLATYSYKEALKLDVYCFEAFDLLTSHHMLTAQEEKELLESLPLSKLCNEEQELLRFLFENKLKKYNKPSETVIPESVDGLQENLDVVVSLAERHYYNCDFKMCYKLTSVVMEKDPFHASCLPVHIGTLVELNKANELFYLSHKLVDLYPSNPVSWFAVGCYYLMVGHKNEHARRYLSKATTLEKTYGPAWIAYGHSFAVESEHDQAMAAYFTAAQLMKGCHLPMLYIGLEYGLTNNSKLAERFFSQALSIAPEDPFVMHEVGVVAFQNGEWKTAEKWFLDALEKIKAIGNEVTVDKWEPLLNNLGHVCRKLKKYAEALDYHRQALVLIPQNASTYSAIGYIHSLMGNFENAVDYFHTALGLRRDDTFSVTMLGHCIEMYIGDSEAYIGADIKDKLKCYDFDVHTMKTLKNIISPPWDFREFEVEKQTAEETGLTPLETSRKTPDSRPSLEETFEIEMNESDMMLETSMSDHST
UniProt Q00403, whole entry: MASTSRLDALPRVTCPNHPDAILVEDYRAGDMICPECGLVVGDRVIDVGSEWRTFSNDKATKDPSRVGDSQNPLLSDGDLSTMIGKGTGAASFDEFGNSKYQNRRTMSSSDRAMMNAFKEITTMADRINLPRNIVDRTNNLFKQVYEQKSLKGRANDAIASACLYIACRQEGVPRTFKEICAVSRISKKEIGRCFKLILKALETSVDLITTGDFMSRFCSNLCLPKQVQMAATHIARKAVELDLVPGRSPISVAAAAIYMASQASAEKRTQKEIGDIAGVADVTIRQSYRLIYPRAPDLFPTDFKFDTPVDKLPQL
UniProt Q04726: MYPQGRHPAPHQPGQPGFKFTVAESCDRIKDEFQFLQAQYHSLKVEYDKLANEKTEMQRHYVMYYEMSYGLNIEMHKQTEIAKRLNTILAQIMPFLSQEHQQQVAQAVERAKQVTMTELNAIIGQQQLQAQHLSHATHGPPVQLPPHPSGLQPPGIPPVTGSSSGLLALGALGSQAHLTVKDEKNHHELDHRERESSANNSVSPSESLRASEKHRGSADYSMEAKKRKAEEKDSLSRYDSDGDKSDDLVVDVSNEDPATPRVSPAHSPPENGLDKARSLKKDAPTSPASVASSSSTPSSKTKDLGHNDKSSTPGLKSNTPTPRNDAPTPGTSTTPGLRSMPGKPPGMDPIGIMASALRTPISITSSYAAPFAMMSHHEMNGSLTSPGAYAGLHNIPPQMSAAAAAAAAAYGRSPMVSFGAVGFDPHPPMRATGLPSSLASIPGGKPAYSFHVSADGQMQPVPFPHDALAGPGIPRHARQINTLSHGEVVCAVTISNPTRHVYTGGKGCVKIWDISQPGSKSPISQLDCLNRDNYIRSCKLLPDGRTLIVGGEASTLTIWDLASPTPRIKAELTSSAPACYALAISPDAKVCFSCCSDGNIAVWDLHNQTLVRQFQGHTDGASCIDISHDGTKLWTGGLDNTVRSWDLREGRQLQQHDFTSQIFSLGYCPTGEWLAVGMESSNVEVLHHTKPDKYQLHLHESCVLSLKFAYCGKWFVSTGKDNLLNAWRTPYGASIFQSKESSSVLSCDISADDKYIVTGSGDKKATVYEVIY
UniProt Q12986: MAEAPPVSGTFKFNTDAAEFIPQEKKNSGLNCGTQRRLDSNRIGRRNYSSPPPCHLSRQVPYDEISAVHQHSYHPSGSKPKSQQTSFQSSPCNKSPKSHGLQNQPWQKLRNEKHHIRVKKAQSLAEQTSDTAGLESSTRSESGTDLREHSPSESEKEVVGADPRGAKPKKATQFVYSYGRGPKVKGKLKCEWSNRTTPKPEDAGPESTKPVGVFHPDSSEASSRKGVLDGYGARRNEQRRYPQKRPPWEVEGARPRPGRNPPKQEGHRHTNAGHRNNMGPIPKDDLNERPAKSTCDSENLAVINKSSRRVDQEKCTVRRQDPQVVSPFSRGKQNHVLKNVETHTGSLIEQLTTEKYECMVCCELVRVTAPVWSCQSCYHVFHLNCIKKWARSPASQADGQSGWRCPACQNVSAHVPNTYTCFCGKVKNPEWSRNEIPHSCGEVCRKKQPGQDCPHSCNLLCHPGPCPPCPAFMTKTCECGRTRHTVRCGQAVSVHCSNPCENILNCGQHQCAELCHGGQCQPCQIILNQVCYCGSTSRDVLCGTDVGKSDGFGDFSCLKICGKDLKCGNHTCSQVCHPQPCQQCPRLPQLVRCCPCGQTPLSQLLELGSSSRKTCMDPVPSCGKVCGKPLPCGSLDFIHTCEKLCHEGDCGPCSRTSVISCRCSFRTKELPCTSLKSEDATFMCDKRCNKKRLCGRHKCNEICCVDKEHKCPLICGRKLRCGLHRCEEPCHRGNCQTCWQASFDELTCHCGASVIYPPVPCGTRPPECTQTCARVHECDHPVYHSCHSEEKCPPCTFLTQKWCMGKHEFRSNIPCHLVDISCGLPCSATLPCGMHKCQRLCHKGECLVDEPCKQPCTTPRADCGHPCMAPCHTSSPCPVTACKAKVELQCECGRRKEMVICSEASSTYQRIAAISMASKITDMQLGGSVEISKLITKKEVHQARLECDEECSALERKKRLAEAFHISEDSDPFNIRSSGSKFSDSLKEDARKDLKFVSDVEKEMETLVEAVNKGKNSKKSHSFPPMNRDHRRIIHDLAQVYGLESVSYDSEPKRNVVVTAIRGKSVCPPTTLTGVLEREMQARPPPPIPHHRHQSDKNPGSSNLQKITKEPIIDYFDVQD
UniProt Q07960: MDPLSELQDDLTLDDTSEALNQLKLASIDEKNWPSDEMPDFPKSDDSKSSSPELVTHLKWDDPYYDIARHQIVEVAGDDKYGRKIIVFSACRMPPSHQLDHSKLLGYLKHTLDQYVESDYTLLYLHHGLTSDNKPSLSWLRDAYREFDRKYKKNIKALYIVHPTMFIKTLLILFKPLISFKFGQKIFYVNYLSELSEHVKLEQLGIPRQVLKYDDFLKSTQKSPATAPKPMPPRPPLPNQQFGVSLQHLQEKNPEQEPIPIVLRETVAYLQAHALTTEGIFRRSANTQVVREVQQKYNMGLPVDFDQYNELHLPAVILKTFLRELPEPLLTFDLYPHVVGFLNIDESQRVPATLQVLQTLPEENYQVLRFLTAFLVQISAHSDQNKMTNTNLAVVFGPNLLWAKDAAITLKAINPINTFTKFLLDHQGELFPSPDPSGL
UniProt Q03426, whole entry: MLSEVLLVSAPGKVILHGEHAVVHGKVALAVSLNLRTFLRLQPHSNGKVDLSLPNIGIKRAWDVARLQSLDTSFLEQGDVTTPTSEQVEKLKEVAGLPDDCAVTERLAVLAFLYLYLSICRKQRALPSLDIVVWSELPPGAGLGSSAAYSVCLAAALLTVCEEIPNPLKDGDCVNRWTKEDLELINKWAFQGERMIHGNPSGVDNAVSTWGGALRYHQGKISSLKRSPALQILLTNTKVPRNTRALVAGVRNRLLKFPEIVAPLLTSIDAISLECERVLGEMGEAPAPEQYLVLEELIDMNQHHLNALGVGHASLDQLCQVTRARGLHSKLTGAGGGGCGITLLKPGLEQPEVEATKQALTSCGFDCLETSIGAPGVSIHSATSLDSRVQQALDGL
UniProt Q10471: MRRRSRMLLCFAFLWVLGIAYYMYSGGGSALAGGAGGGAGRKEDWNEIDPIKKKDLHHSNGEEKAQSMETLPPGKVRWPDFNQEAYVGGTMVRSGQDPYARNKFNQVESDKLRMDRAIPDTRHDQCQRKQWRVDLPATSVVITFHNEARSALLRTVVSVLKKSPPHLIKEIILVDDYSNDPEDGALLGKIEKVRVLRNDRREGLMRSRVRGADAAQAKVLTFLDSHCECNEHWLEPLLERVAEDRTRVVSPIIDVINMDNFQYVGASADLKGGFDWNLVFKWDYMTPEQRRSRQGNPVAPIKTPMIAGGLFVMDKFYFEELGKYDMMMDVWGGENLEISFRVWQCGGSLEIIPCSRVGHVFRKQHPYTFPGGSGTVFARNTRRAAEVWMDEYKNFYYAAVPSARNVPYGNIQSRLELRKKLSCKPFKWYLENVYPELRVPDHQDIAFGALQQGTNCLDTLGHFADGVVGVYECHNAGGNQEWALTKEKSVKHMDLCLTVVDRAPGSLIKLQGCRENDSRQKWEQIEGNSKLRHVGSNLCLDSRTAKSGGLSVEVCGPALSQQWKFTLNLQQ
UniProt Q01459: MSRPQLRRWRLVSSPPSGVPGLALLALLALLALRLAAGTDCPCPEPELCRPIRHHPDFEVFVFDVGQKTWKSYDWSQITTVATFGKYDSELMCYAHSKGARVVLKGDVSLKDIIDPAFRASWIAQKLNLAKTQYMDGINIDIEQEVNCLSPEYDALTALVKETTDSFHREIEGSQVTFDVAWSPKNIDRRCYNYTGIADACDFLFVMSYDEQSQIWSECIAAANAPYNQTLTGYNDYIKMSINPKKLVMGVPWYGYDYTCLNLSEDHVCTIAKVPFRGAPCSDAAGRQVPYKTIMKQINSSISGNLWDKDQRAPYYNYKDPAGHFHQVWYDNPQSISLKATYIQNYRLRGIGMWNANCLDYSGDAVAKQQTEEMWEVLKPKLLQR
UniProt Q00325: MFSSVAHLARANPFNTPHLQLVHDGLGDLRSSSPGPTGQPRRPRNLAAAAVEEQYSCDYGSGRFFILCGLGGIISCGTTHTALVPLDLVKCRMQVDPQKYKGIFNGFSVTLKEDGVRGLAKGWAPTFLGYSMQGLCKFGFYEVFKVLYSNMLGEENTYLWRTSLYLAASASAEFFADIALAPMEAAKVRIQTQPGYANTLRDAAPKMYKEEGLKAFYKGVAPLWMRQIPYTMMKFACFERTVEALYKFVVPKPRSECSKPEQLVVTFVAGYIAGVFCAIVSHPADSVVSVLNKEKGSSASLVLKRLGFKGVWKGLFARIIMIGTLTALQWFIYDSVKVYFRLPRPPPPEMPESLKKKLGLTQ
UniProt P81877: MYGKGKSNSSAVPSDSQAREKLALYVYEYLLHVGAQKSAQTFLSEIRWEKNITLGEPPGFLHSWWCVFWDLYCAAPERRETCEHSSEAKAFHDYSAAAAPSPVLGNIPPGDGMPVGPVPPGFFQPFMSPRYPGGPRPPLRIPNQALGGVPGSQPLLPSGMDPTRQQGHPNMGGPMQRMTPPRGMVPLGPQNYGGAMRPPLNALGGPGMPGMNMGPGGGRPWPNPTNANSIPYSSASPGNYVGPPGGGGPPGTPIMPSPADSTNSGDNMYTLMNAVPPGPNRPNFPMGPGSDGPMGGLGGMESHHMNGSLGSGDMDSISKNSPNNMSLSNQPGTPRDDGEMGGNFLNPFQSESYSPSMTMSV
UniProt Q05655: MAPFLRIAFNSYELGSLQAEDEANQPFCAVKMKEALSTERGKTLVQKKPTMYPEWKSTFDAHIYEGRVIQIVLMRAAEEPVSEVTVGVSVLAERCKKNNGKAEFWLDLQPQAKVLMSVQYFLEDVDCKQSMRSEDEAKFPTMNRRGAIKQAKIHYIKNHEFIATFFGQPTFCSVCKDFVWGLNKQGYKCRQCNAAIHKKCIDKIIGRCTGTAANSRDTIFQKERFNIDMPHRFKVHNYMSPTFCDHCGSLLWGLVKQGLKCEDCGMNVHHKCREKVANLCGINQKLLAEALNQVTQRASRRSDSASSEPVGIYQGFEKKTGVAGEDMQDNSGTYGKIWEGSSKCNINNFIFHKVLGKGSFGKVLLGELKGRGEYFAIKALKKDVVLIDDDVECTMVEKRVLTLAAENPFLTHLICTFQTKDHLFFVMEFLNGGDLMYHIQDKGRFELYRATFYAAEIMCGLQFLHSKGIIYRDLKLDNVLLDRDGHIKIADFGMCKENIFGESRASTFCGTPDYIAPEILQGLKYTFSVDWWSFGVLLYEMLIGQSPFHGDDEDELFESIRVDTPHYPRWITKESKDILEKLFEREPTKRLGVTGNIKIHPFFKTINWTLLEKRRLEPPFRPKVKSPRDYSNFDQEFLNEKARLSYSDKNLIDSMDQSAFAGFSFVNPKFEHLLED

The other results are listed elsewhere or left out. The data scatter; read single values as rough.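 Tm was set to 64 °C where no melting was found, and many curves are irregular.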

With TRIM26 (UniProt Q12899), the melting temperature shift was -2.81 °C (MBE1 concentration: 100 nM) and 0.202 °C (MBE1 concentration: 1 uM).
Take UniProt Q12962: the melting temperature shift by setting is: (MBE1 concentration: 100 nM) -3.08 °C; (MBE1 concentration: 1 uM) -3.25 °C.
For UniProt Q12872, in that order: -1.32 °C and -0.955 °C.
As for PTPRJ (UniProt Q12913), the melting temperature shift (MBE1 concentration: 100 nM) came out at 1.65 °C and the melting temperature shift (MBE1 concentration: 1 uM) is 0.873 °C.
As to PTS (UniProt Q03393), the melting temperature shift reads like this: (MBE1 concentration: 100 nM) -1.37 °C; (MBE1 concentration: 1 uM) -0.871 °C.
DHX9 (UniProt Q08211): the melting temperature shift (MBE1 concentration: 100 nM) was determined as 1.11 °C and the melting temperature shift (MBE1 concentration: 1 uM) amounted to 0.305 °C.
For CDK6 (UniProt Q00534), in that order: 0.971 °C and 0.837 °C.
For ATP2C1 (UniProt P98194), in that order: -0.496 °C and 0.785 °C.
As to AES (UniProt Q08117), the melting temperature shift is, setting by setting: (MBE1 concentration: 100 nM) 0.965 °C; (MBE1 concentration: 1 uM) -1.86 °C.
With NFIA (UniProt Q12857), the melting temperature shift is 0 °C (MBE1 concentration: 100 nM) and 21.2 °C (MBE1 concentration: 1 uM).
Consider UniProt Q13015, for which the melting temperature shift reads like this: (MBE1 concentration: 100 nM) -0.0384 °C; (MBE1 concentration: 1 uM) -0.102 °C.
For MPP1 (UniProt Q00013), the melting temperature shift is -1.09 °C (MBE1 concentration: 100 nM) and -0.922 °C (MBE1 concentration: 1 uM).
Take CDC16 (UniProt Q13042): the melting temperature shift turned out to be 0.427 °C (MBE1 concentration: 100 nM) and 0.293 °C (MBE1 concentration: 1 uM).
Take SP3 (UniProt Q02447): the melting temperature shift runs as follows: (MBE1 concentration: 100 nM) -4.65 °C; (MBE1 concentration: 1 uM) -2.05 °C.
Regarding UniProt Q00536, the melting temperature shift (MBE1 concentration: 100 nM) was -0.999 °C and the melting temperature shift (MBE1 concentration: 1 uM) turned out to be 0.703 °C.
On to GTF2B (UniProt Q00403), for which the melting temperature shift by setting is: (MBE1 concentration: 100 nM) -0.991 °C; (MBE1 concentration: 1 uM) -0.557 °C.
Regarding MCL1 (UniProt Q07820), the melting temperature shift turned out to be 1.81 °C (MBE1 concentration: 100 nM) and 2.05 °C (MBE1 concentration: 1 uM).
As to UniProt P78368, the melting temperature shift is, setting by setting: (MBE1 concentration: 100 nM) -0.376 °C; (MBE1 concentration: 1 uM) 0.838 °C.
Turning to TNFAIP2 (UniProt Q03169), the melting temperature shift runs as follows: (MBE1 concentration: 100 nM) 0.122 °C; (MBE1 concentration: 1 uM) 0.519 °C.
For the target FOXK2 (UniProt Q01167), the melting temperature shift runs as follows: (MBE1 concentration: 100 nM) -0.916 °C; (MBE1 concentration: 1 uM) 0.0897 °C.
In the case of FOXO1 (UniProt Q12778), the melting temperature shift reads like this: (MBE1 concentration: 100 nM) -1.38 °C; (MBE1 concentration: 1 uM) -2.36 °C.
Take ACY1 (UniProt Q03154): the melting temperature shift by setting is: (MBE1 concentration: 100 nM) -3.37 °C; (MBE1 concentration: 1 uM) -2.4 °C.
NOP14 (UniProt P78316): the melting temperature shift runs as follows: (MBE1 concentration: 100 nM) -0.173 °C; (MBE1 concentration: 1 uM) -0.263 °C.
CDR2 (UniProt Q01850): the melting temperature shift runs as follows: (MBE1 concentration: 100 nM) 0.216 °C; (MBE1 concentration: 1 uM) 0.0612 °C.
For RPL19 (UniProt P84098), in that order: -1.66 °C and -4.35 °C.
For TOP2B (UniProt Q02880), the melting temperature shift is 0.415 °C (MBE1 concentration: 100 nM) and 0.421 °C (MBE1 concentration: 1 uM).
As to TLE4 (UniProt Q04727), the melting temperature shift is, setting by setting: (MBE1 concentration: 100 nM) -1.23 °C; (MBE1 concentration: 1 uM) 0.263 °C.
For MRPS34 (UniProt P82930) the same measures were 0.336 °C and -0.122 °C.
On to IFRD2 (UniProt Q12894), for which the melting temperature shift is, setting by setting: (MBE1 concentration: 100 nM) 0.0488 °C; (MBE1 concentration: 1 uM) 1.03 °C.
For TLE3 (UniProt Q04726), in that order: -1.15 °C and -0.469 °C.
For the target NFX1 (UniProt Q12986), the melting temperature shift reads like this: (MBE1 concentration: 100 nM) 0.861 °C; (MBE1 concentration: 1 uM) -0.281 °C.
ARHGAP1 (UniProt Q07960): the melting temperature shift reads like this: (MBE1 concentration: 100 nM) 0.0122 °C; (MBE1 concentration: 1 uM) 0.366 °C.
Consider GFPT1 (UniProt Q06210), for which the melting temperature shift was -1.05 °C (MBE1 concentration: 100 nM) and 0.57 °C (MBE1 concentration: 1 uM).
Regarding UniProt P83881, the melting temperature shift was -0.372 °C (MBE1 concentration: 100 nM) and -0.147 °C (MBE1 concentration: 1 uM).
For the target UniProt Q03468, the melting temperature shift by setting is: (MBE1 concentration: 100 nM) -1.21 °C; (MBE1 concentration: 1 uM) -1.98 °C.
For SPTBN1 (UniProt Q01082), in that order: -0.55 °C and 0.128 °C.
RELB (UniProt Q01201): the melting temperature shift (MBE1 concentration: 100 nM) is -0.353 °C and the melting temperature shift (MBE1 concentration: 1 uM) was -0.146 °C.
On to LMNB2 (UniProt Q03252), for which the melting temperature shift by setting is: (MBE1 concentration: 100 nM) 0.336 °C; (MBE1 concentration: 1 uM) 0.202 °C.
For UniProt Q06033, the melting temperature shift runs as follows: (MBE1 concentration: 100 nM) -2.58 °C; (MBE1 concentration: 1 uM) -0.319 °C.
Turning to UniProt Q01831, the melting temperature shift is -0.416 °C (MBE1 concentration: 100 nM) and -0.301 °C (MBE1 concentration: 1 uM).
Consider EP300 (UniProt Q09472), for which the melting temperature shift is 0.36 °C (MBE1 concentration: 100 nM) and 0.122 °C (MBE1 concentration: 1 uM).
For the target FOXK1 (UniProt P85037), the melting temperature shift worked out at 0.368 °C (MBE1 concentration: 100 nM) and 0.0366 °C (MBE1 concentration: 1 uM).
Consider OGDH (UniProt Q02218), for which the melting temperature shift was found to be 1.06 °C (MBE1 concentration: 100 nM) and 0.562 °C (MBE1 concentration: 1 uM).
For the target UniProt Q09328, the melting temperature shift (MBE1 concentration: 100 nM) is -2.45 °C and the melting temperature shift (MBE1 concentration: 1 uM) was 2.21 °C.
For IGBP1 (UniProt P78318), in that order: 0.116 °C and 0.611 °C.
Consider TAP2 (UniProt Q03519), for which the melting temperature shift was -0.141 °C (MBE1 concentration: 100 nM) and -0.113 °C (MBE1 concentration: 1 uM).
For MVK (UniProt Q03426) the same measures were 0.221 °C and 0.925 °C.
Regarding PPID (UniProt Q08752), the melting temperature shift was -0.565 °C (MBE1 concentration: 100 nM) and -0.282 °C (MBE1 concentration: 1 uM).
With RPL18A (UniProt Q02543), the melting temperature shift (MBE1 concentration: 100 nM) was -0.519 °C and the melting temperature shift (MBE1 concentration: 1 uM) was determined as 0.427 °C.
As to GALNT2 (UniProt Q10471), the melting temperature shift runs as follows: (MBE1 concentration: 100 nM) 0.684 °C; (MBE1 concentration: 1 uM) 0.202 °C.
As for ST3GAL4 (UniProt Q11206), the melting temperature shift (MBE1 concentration: 100 nM) is -0.516 °C and the melting temperature shift (MBE1 concentration: 1 uM) is 0.449 °C.
With UniProt P84022, the melting temperature shift (MBE1 concentration: 100 nM) is -3.7 °C and the melting temperature shift (MBE1 concentration: 1 uM) is -8.27 °C.
As to LMAN2 (UniProt Q12907), the melting temperature shift reads like this: (MBE1 concentration: 100 nM) 0.107 °C; (MBE1 concentration: 1 uM) -0.255 °C.
For P86790 (UniProt P86791), the melting temperature shift reads like this: (MBE1 concentration: 100 nM) 1.43 °C; (MBE1 concentration: 1 uM) 0.403 °C.
As for UniProt Q01459, the melting temperature shift reads like this: (MBE1 concentration: 100 nM) -0.745 °C; (MBE1 concentration: 1 uM) 0.0305 °C.
For UniProt P84074, the melting temperature shift by setting is: (MBE1 concentration: 100 nM) -1.3 °C; (MBE1 concentration: 1 uM) -0.698 °C.
For SLC25A3 (UniProt Q00325), in that order: -2.61 °C and 0.712 °C.
Consider EWSR1 (UniProt Q01844), for which the melting temperature shift by setting is: (MBE1 concentration: 100 nM) -6.09 °C; (MBE1 concentration: 1 uM) -0.782 °C.
On to MRPS6 (UniProt P82932), for which the melting temperature shift by setting is: (MBE1 concentration: 100 nM) 3.61 °C; (MBE1 concentration: 1 uM) 2.4 °C.
Turning to RHOG (UniProt P84095), the melting temperature shift reads like this: (MBE1 concentration: 100 nM) -1.5 °C; (MBE1 concentration: 1 uM) 2.15 °C.
Turning to UniProt P81877, the melting temperature shift reads like this: (MBE1 concentration: 100 nM) -1.15 °C; (MBE1 concentration: 1 uM) 0.194 °C.
On to FCHO2 (UniProt Q0JRZ9), for which the melting temperature shift (MBE1 concentration: 100 nM) was 0.818 °C and the melting temperature shift (MBE1 concentration: 1 uM) stood at 0.0488 °C.
For UniProt Q02750 the same measures were -0.436 °C and -0.0268 °C.
Turning to UniProt Q05655, the melting temperature shift is, setting by setting: (MBE1 concentration: 100 nM) -0.324 °C; (MBE1 concentration: 1 uM) 0.153 °C.
Regarding UniProt Q12929, the melting temperature shift reads like this: (MBE1 concentration: 100 nM) 0.182 °C; (MBE1 concentration: 1 uM) 0.0272 °C.
Take EIF4G2 (UniProt P78344): the melting temperature shift runs as follows: (MBE1 concentration: 100 nM) -0.624 °C; (MBE1 concentration: 1 uM) -0.147 °C.
For MRPS9 (UniProt P82933), in that order: -2.01 °C and -1.62 °C.
As to DMWD (UniProt Q09019), the melting temperature shift by setting is: (MBE1 concentration: 100 nM) -2.04 °C; (MBE1 concentration: 1 uM) -3.71 °C.
Regarding GALK2 (UniProt Q01415), the melting temperature shift is -0.256 °C (MBE1 concentration: 100 nM) and 0.629 °C (MBE1 concentration: 1 uM).
As to RPL6 (UniProt Q02878), the melting temperature shift runs as follows: (MBE1 concentration: 100 nM) -1.67 °C; (MBE1 concentration: 1 uM) -1.32 °C.

The values above are taken from the supplement of paper PMC12595434, “Development of retinoid nuclear receptor pathway antagonists through targeting aldehyde dehydrogenase 1A3” (iScience, 2025).
